Laboratory results from article PMC8574307.
These are yes or no findings as the source states them, for the method shown. Binding seen in cells or lysates may run through a third protein. Some results given as binding are weak or reduced against the parent protein; the word gives no strength.

Sequences of proteins named here, by UniProt entry; tags and fusion partners are left off.
UniProt P42224: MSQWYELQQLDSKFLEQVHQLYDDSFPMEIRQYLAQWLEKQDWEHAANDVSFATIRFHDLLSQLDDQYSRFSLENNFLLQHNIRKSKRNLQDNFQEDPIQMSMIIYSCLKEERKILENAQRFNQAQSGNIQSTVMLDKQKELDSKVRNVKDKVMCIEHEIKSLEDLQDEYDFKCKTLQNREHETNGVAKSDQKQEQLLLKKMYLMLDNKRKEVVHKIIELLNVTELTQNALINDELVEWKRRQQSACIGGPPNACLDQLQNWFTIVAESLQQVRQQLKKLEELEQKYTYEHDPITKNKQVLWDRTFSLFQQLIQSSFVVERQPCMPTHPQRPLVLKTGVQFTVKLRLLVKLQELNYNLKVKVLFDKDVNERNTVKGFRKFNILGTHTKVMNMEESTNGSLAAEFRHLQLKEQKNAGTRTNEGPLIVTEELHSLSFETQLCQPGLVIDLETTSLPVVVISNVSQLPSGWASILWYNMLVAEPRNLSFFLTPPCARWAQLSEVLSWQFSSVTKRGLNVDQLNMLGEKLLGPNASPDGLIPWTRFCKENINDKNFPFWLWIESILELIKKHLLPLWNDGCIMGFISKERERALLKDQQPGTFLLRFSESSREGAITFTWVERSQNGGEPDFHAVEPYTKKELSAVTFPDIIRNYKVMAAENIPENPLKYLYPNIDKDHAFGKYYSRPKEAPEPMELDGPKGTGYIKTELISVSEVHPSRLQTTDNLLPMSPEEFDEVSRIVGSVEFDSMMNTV

Target: STAT1 used as bait in the reciprocal S-pulldown (HEK293-ACE2 cells infected with SARS-CoV-2) (UniProt P42224)
Experiment: pull-down

With “SARS-CoV-2 NSP13 made during infection (from UniProt P0DTD1 5325-5925)” the binding was “binds”.
